Data as given in PubChem BioAssay AID1053208 (Peter MacCallum Cancer Centre, 2014).
The whole screen tested about 17,000 reagents; below is an unselected part. Of all reagents, 788 (4.7%) were called active. 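Calls rest on z-score classes alone; an extra cut-off of viability at most 70% of control was not applied to them.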 The numbers tell different reagents against one gene apart.

Screen: 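Find knock-downs that sensitise mouse osteosarcoma cells to doxorubicin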 (primary screen)
Cells: mouse osteosarcoma cells, early-passage culture from an engineered mouse model of fibroblastic bone tumour
Knock-down reagent: siRNA pool against mouse genes, 40 nM
Timing: about 120 h (48 h before drug, then 72 h with drug)
Challenge: doxorubicin 100 nM for 72 h, roughly 30-40% inhibitory dose
Measured: 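Viability read as ATP luminescence after 72 h of 100 nM doxorubicin or none, duplicate wells averaged, scaled to non-targeting siRNA, then expressed as robust z-scores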
Reading the numbers: viability z-score with doxorubicin and doxorubicin viability vs non-targeting: higher = more viable cells under doxorubicin; viability z-score without drug: higher = more viable cells with knock-down alone; z-score of drug to no-drug ratio: higher = less drug sensitisation by knock-down
Active means: 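a pool counts as active when its viability z-score with doxorubicin is -2 or below and its z-score without drug lies between -2 and 2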

gene knocked down	reagent	combined z-score class	viability z-score with doxorubicin	viability z-score without drug	z-score of drug to no-drug ratio	doxorubicin viability vs non-targeting	Outcome
Tle1 (GeneID 21885)	1	low cell count with doxorubicin only	-2.81	-1.18	-2.25	0.69	active
Krtap31-1 (GeneID 70831)	1	no change with or without drug	0.34	0	0.45	0.97	inactive
Arsb (GeneID 11881)	1	low cell count without drug only	-0.67	-2.19	1.01	0.88	inactive
Arsb (GeneID 11881)	2	high cell count with and without drug	2.14	2.53	0.56	1.13	inactive
Cpb1 (GeneID 76703)	1	no change with or without drug	0.56	1.18	-0.11	0.99	inactive
St7l (GeneID 229681)	1	no change with or without drug	-0.45	-0.17	-0.22	0.9	inactive
Or5p60 (GeneID 258492)	1	no change with or without drug	-0.67	-0.84	0	0.88	inactive
Or10g6 (GeneID 258283)	1	no change with or without drug	-0.56	0.51	-0.79	0.89	inactive
Med26 (GeneID 70625)	1	low cell count with doxorubicin only	-3.6	-0.84	-3.26	0.62	active
Ghrh (GeneID 14601)	1	no change with or without drug	-0.45	-0.67	0.11	0.9	inactive
Or52s1 (GeneID 258378)	1	low cell count with and without drug	-3.37	-3.2	-1.57	0.64	inactive
Izumo1r (GeneID 64931)	1	no change with or without drug	0.45	0.84	0	0.98	inactive
Cpt1a (GeneID 12894)	1	no change with or without drug	0.22	-0.51	0.67	0.96	inactive
Rad21 (GeneID 19357)	1	no change with or without drug	-1.57	-0.84	-1.01	0.8	inactive
Exosc4 (GeneID 109075)	1	no change with or without drug	-0.45	0.34	-0.56	0.9	inactive
Alpk2 (GeneID 225638)	1	no change with or without drug	1.8	1.18	1.12	1.1	inactive
Fbxl14 (GeneID 101358)	1	no change with or without drug	0.9	0.34	0.79	1.02	inactive
Or4k44 (GeneID 258887)	1	no change with or without drug	-1.8	-0.51	-1.46	0.78	inactive
Xylt2 (GeneID 217119)	1	no change with or without drug	-0.34	0.17	-0.34	0.91	inactive
Itm2a (GeneID 16431)	1	no change with or without drug	-1.24	0.17	-1.35	0.83	inactive
Pigf (GeneID 18701)	1	no change with or without drug	-1.35	0.17	-1.46	0.82	inactive
Pak6 (GeneID 214230)	1	no change with or without drug	-0.9	-1.35	0.11	0.86	inactive
Amy2a5 (GeneID 109959)	1	no change with or without drug	0.45	0.17	0.45	0.98	inactive
Dhx9 (GeneID 13211)	1	no change with or without drug	1.12	0.67	0.79	1.04	inactive
Ifnar2 (GeneID 15976)	1	no change with or without drug	0.79	0	0.9	1.01	inactive
Vmn1r200 (GeneID 171246)	1	no change with or without drug	-1.01	0.17	-1.01	0.85	inactive
Dlgap3 (GeneID 242667)	1	no change with or without drug	-0.45	-0.51	0	0.9	inactive
Aldh1b1 (GeneID 72535)	1	no change with or without drug	0	1.01	-0.56	0.94	inactive
Lzts2 (GeneID 226154)	1	no change with or without drug	-0.67	0.84	-1.12	0.88	inactive
Gata5 (GeneID 14464)	1	no change with or without drug	0.56	0	0.67	0.99	inactive
Babam1 (GeneID 68251)	1	no change with or without drug	-0.79	0	-0.67	0.87	inactive
Sfrp1 (GeneID 20377)	1	no change with or without drug	-0.22	0	-0.11	0.92	inactive
Gh (GeneID 14599)	1	no change with or without drug	0.11	1.18	-0.56	0.95	inactive
Wbp4 (GeneID 22380)	1	high cell count with and without drug	2.36	2.87	0.56	1.15	inactive
Cyp2c70 (GeneID 226105)	1	no change with or without drug	0	0.84	-0.45	0.94	inactive
Txnrd2 (GeneID 26462)	1	no change with or without drug	0.22	0.51	0	0.96	inactive
Prb1b (GeneID 381832)	1	no change with or without drug	0.9	1.35	0.11	1.02	inactive
Prb1b (GeneID 381832)	2	no change with or without drug	-0.11	1.85	-1.12	0.93	inactive
Triqk (GeneID 208820)	1	no change with or without drug	0.45	0.84	0	0.98	inactive
Or12k7 (GeneID 258615)	1	no change with or without drug	0.22	0.17	0.22	0.96	inactive
E130114P18Rik (GeneID 319865)	1	no change with or without drug	-0.67	1.18	-1.35	0.88	inactive
Or2a52 (GeneID 258293)	1	no change with or without drug	-1.12	-1.18	-0.34	0.84	inactive
Atpaf2 (GeneID 246782)	1	no change with or without drug	-0.67	-0.17	-0.45	0.88	inactive
Slc22a22 (GeneID 210463)	1	no change with or without drug	1.01	-0.17	1.35	1.03	inactive
C1qa (GeneID 12259)	1	no change with or without drug	-0.11	0.34	-0.22	0.93	inactive
Cog1 (GeneID 16834)	1	no change with or without drug	0.9	1.35	0.11	1.02	inactive
Slc15a2 (GeneID 57738)	1	no change with or without drug	-0.34	1.52	-1.12	0.91	inactive
Tas2r124 (GeneID 387351)	1	no change with or without drug	0.45	0.51	0.22	0.98	inactive
Spint2 (GeneID 20733)	1	no change with or without drug	0.11	0	0.22	0.95	inactive
Plaur (GeneID 18793)	1	high cell count with doxorubicin only	2.02	1.85	0.9	1.12	inactive

Quoted from the listing (8 entries):
gene knocked down	reagent	combined z-score class	viability z-score with doxorubicin	viability z-score without drug	z-score of drug to no-drug ratio	doxorubicin viability vs non-targeting	Outcome
Cpb1 (GeneID 76703)	1	no change with or without drug	0.56	1.18	-0.11	0.99	inactive
St7l (GeneID 229681)	1	no change with or without drug	-0.45	-0.17	-0.22	0.9	inactive
Or5p60 (GeneID 258492)	1	no change with or without drug	-0.67	-0.84	0	0.88	inactive
Or10g6 (GeneID 258283)	1	no change with or without drug	-0.56	0.51	-0.79	0.89	inactive
Med26 (GeneID 70625)	1	low cell count with doxorubicin only	-3.6	-0.84	-3.26	0.62	active
Ghrh (GeneID 14601)	1	no change with or without drug	-0.45	-0.67	0.11	0.9	inactive
Or52s1 (GeneID 258378)	1	low cell count with and without drug	-3.37	-3.2	-1.57	0.64	inactive
Izumo1r (GeneID 64931)	1	no change with or without drug	0.45	0.84	0	0.98	inactive
